Source: PubChem BioAssay AID504834 (National Center for Advancing Translational Sciences (NCATS), 2011)
Where “and” joins values, the source holds several entries; their conditions need not be identical. Identical values can stand only once. Out of some 320,000 compounds screened, about 22,000 (6.9%) were called active. Inconclusive results, whose numbers are uncertain, are shown with a selection of clear calls. Calls follow the shape of the dose curve; as a rule, active = well fitted inhibition curve with a large enough effect; inconclusive = small, poorly fitted or top-dose-only effect, or another doubt; inactive = no such curve, though single readings can be large or run the other way. Potencies of inconclusive entries are doubtful fits and often do not repeat.

Test: Primary qHTS for delayed death inhibitors of the malarial parasite plastid, 96 hour incubation
Conditions: P. falciparum luciferase reporter growth; series mostly up to 28.7 µM; activity change, negative = inhibition: at the top concentration
How it was run: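 Cell-based qHTS: luciferase-tagged P. falciparum in erythrocytes (2% hematocrit, 0.05% parasitemia final) incubated with compounds for 96 hours, 37 C, 5% CO2; luciferase detection reagent then added and luminescence measured.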
% is scaled to controls: 0 for no effect and ±100 for the full control effect; potency is read from the fitted curve at half-maximal effect.

Question: With Cc1nc(NS(=O)(=O)c2ccccc2)sc1NC(=O)OCCN(C)C as the compound, how does the Potency read?
Answer: inconclusive: 18.5 µM [inhibitor, single point]

Question: Which Potency does the source give for Cc1oc(-c2ccccc2Cl)nc1Cn1cccc1C1=NC(c2ccccc2)CO1 (stereo not drawn) here?
Answer: inconclusive: 18.5 µM [inhibitor, single point]

Question: For O=[N+]([O-])c1ccc(CSc2ccc(S(=O)(=O)N3CCCC3)cn2)cc1, which “activity change, negative = inhibition” value is on record?
Answer: inactive: -6.18%

Question: Which Potency does the source give for Cc1ccc(S(=O)(=O)N2CCN(Cc3nc4ccccc4[nH]3)CC2)cc1C here?
Answer: inconclusive: 18.5 µM [inhibitor, single point]

Question: For FC(F)Oc1ccc(NC(=S)NCc2ccco2)cc1Cl, which Potency is on record?
Answer: inconclusive: 0.0928 µM [inhibitor, full curve, poor fit]

Question: For COc1cc(Cl)c(C)cc1NC(=O)CNC(=O)Cn1cnc2ccccc2c1=O, which Potency is on record?
Answer: inconclusive: 0.0026 µM [inhibitor, full curve, poor fit]

Question: For CCN(CC)C(=O)Cn1cc(C(=O)C(=O)N2CCN(c3ccc([N+](=O)[O-])cc3)CC2)c2ccccc21, which Potency is on record?
Answer: inconclusive: 10.4 µM [inhibitor, single point]

Question: For COc1ccccc1CC(=O)Nc1cccc(C(=O)Nc2nccs2)c1, which Potency is on record?
Answer: inconclusive: 13.1 µM [inhibitor, single point]

Question: With Cc1cc(NC(=O)C(C)SCC(=O)O)no1 (stereo not drawn) as the compound, how does the “activity change, negative = inhibition” value read?
Answer: inactive: -0.419%

Question: For CC(C)CNS(=O)(=O)c1ccc(NC(=O)Cn2nc(-c3ccc(F)cc3)ccc2=O)cc1, which Potency is on record?
Answer: inconclusive: 4.15 µM [inhibitor, single point]

Question: Which “activity change, negative = inhibition” value does the source give for CCCn1nc(Oc2nc(NC(C)C)nc(N(C)C)n2)ccc1=O here?
Answer: inactive: 33.8%

Question: For CC(C)C[C@@H](C)C(=O)N(Cc1ccccc1)c1ccccc1, which Potency is on record?
Answer: inconclusive: 16.5 µM [inhibitor, single point]

Question: For O=C(O)c1ccc2c(=O)[nH]c(CCl)nc2c1, which Potency is on record?
Answer: active: 13.1 µM

Question: For Cc1ccccc1N=C1NC(=O)C(CO)(CO)S1, which “activity change, negative = inhibition” value is on record?
Answer: inactive: -34.8%

Question: For Cn1c(C(=O)NC2CCCCCC2)cc2c(=O)n(C)c3ccccc3c21, which “activity change, negative = inhibition” value is on record?
Answer: inactive: -8.03%

Question: With CC(=O)c1c(C)[nH]c(C(=O)COC(=O)c2nccnc2N)c1C as the compound, how does the Potency read?
Answer: inconclusive: 18.5 µM [inhibitor, single point]

Question: For Fc1ccc2c(c1)C(c1cccnc1)=NNC(c1cccs1)=N2, which Potency is on record?
Answer: active: 7.38 µM

Question: Which “activity change, negative = inhibition” value does the source give for Fc1cccc(Cl)c1CSc1nnc2ccccn12 here?
Answer: inactive: 52.8%

Question: With Cc1cc(-c2ccc(C(C)C)c(S(=O)(=O)NCc3ccco3)c2)on1 as the compound, how does the Potency read?
Answer: inconclusive: 18.5 µM [inhibitor, single point]

Question: With O=c1c2nncn2c2cccnc2n1CCNc1ncc(C(F)(F)F)cc1Cl as the compound, how does the “activity change, negative = inhibition” value read?
Answer: inactive: -18.9%

Question: For Cc1ccccc1-n1cc[nH]c1=S, which “activity change, negative = inhibition” value is on record?
Answer: inactive: 0.64%

Question: Which “activity change, negative = inhibition” value does the source give for COc1ccccc1NS(=O)(=O)c1ccc2oc(N)nc2c1 here?
Answer: inactive: 10.5%

Question: With O=C(NNc1ccc([N+](=O)[O-])cc1)Nc1ccccc1 as the compound, how does the Potency read?
Answer: inconclusive: 18.5 µM [inhibitor, single point]

Question: Which “activity change, negative = inhibition” value does the source give for O=c1oc2cc(Br)ccc2n1Cc1ccccc1 here?
Answer: inactive: 47.8%

Question: For Cc1c(CNC(=O)C2CC2)c(-n2cccc2)n(Cc2ccccc2)c1C, which “activity change, negative = inhibition” value is on record?
Answer: inactive: 54.7%

Question: Which “activity change, negative = inhibition” value does the source give for CCOC(=O)c1[nH]c2cc(OC)c(OC)cc2c1N here?
Answer: inactive: 17.8%

Question: With COc1ccc(N(C(=O)c2cccnc2)S(=O)(=O)c2ccc(OC)c(OC)c2)cc1 as the compound, how does the Potency read?
Answer: inconclusive: 0.037 µM [inhibitor, full curve, poor fit]

Question: Which Potency does the source give for CC(=O)c1c(N2CCN(Cc3ccc4c(c3)OCO4)CC2)nc(=S)n(-c2ccccc2)c1C here?
Answer: inconclusive: 18.5 µM [inhibitor, partial curve, poor fit]

Question: Which “activity change, negative = inhibition” value does the source give for O=S(=O)(N/N=C1/CC(c2ccccc2)Oc2ccccc21)c1ccc(Br)cc1 (stereo not drawn) here?
Answer: inactive: 18.7%

Question: For CC1C2NC(=O)N(Cc3ccccc3)C1(C)Oc1ccccc12 (stereo not drawn), which Potency is on record?
Answer: inconclusive: 8.28 µM [inhibitor, partial curve, poor fit]

Question: With CCOC(=O)c1c(CSc2ccccc2)oc2cc(Br)c(O)c(CN(C)C)c12 as the compound, how does the Potency read?
Answer: inconclusive: 3.7 µM [inhibitor, partial curve, poor fit]

Question: For COc1cccc(-c2cc(C(F)(F)F)nc(-n3ccc([N+](=O)[O-])n3)n2)c1, which Potency is on record?
Answer: inconclusive: 1.31 µM [inhibitor, partial curve, poor fit]

Question: With O=C(O)c1cccnc1 as the compound, how does the Potency read?
Answer: inconclusive: 16.9 µM [inhibitor, single point] and inconclusive: 10.4 µM [inhibitor, partial curve]

Question: Which “activity change, negative = inhibition” value does the source give for Fc1ccccc1Nc1nc(NCc2ccco2)nc(N2CCOCC2)n1 here?
Answer: inactive: 157%

Question: Which Potency does the source give for CCc1cc(=O)oc2c(C)c(OC(C)C(=O)NCCCn3ccnc3)ccc12 (stereo not drawn) here?
Answer: inconclusive: 5.86 µM [inhibitor, partial curve]

Question: For Cc1ccc(-c2noc(C3CCCN(C(=O)c4ccccc4Br)C3)n2)cc1 (stereo not drawn), which Potency is on record?
Answer: inconclusive: 18.5 µM [inhibitor, single point]

Question: With CCCC(=O)Nc1ccc(Sc2ccc([N+](=O)[O-])cc2)cc1 as the compound, how does the Potency read?
Answer: active: 14.7 µM

Question: Which Potency does the source give for CCn1c(CN2CCCCC2)nc2cc(S(=O)(=O)N3CCCCC3)ccc21 here?
Answer: inconclusive: 18.5 µM [inhibitor, single point]

Question: With Cc1ccc(-c2noc(C3CCCN(C(=O)c4cccc(F)c4)C3)n2)cc1 (stereo not drawn) as the compound, how does the “activity change, negative = inhibition” value read?
Answer: inactive: 41.8%

Question: Which “activity change, negative = inhibition” value does the source give for Cc1csc(SCC(=O)N(C)CC(=O)Nc2ccc(F)cc2)n1 here?
Answer: inactive: 20%

Question: With O=C(Nc1cnccn1)c1ccc(Cl)cc1 as the compound, how does the “activity change, negative = inhibition” value read?
Answer: inactive: 55.9%

Question: Which “activity change, negative = inhibition” value does the source give for C=CCn1c(=NC(=O)c2ccco2)sc2cc(C(=O)OC)ccc21 here?
Answer: inactive: 6.01%

Question: For Cc1ccc(CS(=O)Cc2ccc(C(=O)NCc3ccccc3Br)o2)cc1 (stereo not drawn), which Potency is on record?
Answer: inconclusive: 18.5 µM [inhibitor, single point]

Question: Which Potency does the source give for CCc1noc(C)c1C(=O)Nc1nc(-c2ccccc2)c(C(C)=O)s1 here?
Answer: inconclusive: 6.57 µM [inhibitor, partial curve]

Question: Which Potency does the source give for Cc1ccc2cc(CN(CCN3CCOCC3)C(=O)NCc3ccccc3)c(=O)[nH]c2c1C here?
Answer: inconclusive: 8.28 µM [inhibitor, single point]

Question: For O=c1[nH]c(N/N=C/c2ccccc2Br)nnc1-c1ccccc1, which Potency is on record?
Answer: inconclusive: 0.233 µM [inhibitor, partial curve, poor fit]

Question: For O=C(NNC1CC(=O)N(c2ccc(Br)cc2)C1=O)c1cccnc1 (stereo not drawn), which “activity change, negative = inhibition” value is on record?
Answer: inactive: 6.48%

Question: With O=c1c2ccccc2nnn1Cc1nnc(-c2ccccc2Br)o1 as the compound, how does the “activity change, negative = inhibition” value read?
Answer: inactive: 98.1%

Question: For Cc1ccc([C@@H]2[C@@H]3C(=O)N(C)C(=O)[C@@H]3[C@]3(Cc4ccccc4)C(=O)N(Cc4ccccc4)CC(=O)N23)o1, which Potency is on record?
Answer: inconclusive: 0.117 µM [inhibitor, full curve, poor fit]

Question: Which Potency does the source give for CCc1noc(C)c1C(=O)Nc1nc(-c2ccc(F)cc2)c(C)s1 here?
Answer: inconclusive: 18.5 µM [inhibitor, single point]

Question: With CCN(c1ccccc1)S(=O)(=O)c1ccc(Cl)c(NC(=O)CSc2nncn2C)c1 as the compound, how does the Potency read?
Answer: active: 8.28 µM

Question: For O=C(COC(=O)Cn1cnc2ccccc21)NCc1ccc(F)cc1, which “activity change, negative = inhibition” value is on record?
Answer: inactive: 26.5%

Question: Which Potency does the source give for CN(CCC#N)C(=S)NC(=O)c1ccc(S(=O)(=O)N2CCOCC2)cc1 here?
Answer: inconclusive: 16.5 µM [inhibitor, partial curve, poor fit]

Question: With O=S(=O)(c1ccc(OCC2CO2)cc1)c1ccc(OCC2CO2)cc1 (stereo not drawn) as the compound, how does the Potency read?
Answer: inconclusive: 10.4 µM [inhibitor, single point]

Question: For C=CCNC(=O)COc1coc(CN2CCN(Cc3ccccc3)CC2)cc1=O, which Potency is on record?
Answer: active: 13.1 µM

Question: For CN1CCN(CCCNC(=O)c2ccc3c(c2)N(Cc2ccc(F)cc2)CCS3)CC1, which Potency is on record?
Answer: active: 10.4 µM

Question: With Nc1nc(Nc2ccccc2)nc2ccccc12 as the compound, how does the Potency read?
Answer: inconclusive: 10.4 µM [inhibitor, single point]

Question: Which Potency does the source give for OCCNCc1cccc(OCc2ccccc2Cl)c1 here?
Answer: inconclusive: 9.28 µM [inhibitor, single point]

Question: For COc1ccccc1N(C)S(=O)(=O)c1ccc(C(=O)Nc2ncc(C)s2)cc1, which Potency is on record?
Answer: inconclusive: 1.31 µM [inhibitor, partial curve]

Question: With O=C(NCCCn1ccnc1)c1cc([N+](=O)[O-])cc([N+](=O)[O-])c1 as the compound, how does the Potency read?
Answer: inconclusive: 18.5 µM [inhibitor, single point]

Question: For O=C(CC1CS(=O)(=O)CC1CC(=O)Nc1ccc2c(c1)OCCO2)Nc1ccc2c(c1)OCCO2 (stereo not drawn), which “activity change, negative = inhibition” value is on record?
Answer: inactive: -9.13%

Question: For CC(=O)N/C(=N/c1nc(C)cc(C)n1)Nc1ccc(NC(C)=O)cc1, which Potency is on record?
Answer: active: 9.28 µM

Question: Which Potency does the source give for CN1N=C(C(C)(C)C)CC1=O here?
Answer: inconclusive: 2.94 µM [inhibitor, full curve]

Question: For O=C(/C=C/c1ccco1)N(Cc1cccc(F)c1)C1CCS(=O)(=O)C1 (stereo not drawn), which Potency is on record?
Answer: inconclusive: 5.86 µM [inhibitor, partial curve, poor fit]

Question: For CN(C)c1nc2c(c(=O)[nH]c(=O)n2C)n1CCOc1ccccc1, which “activity change, negative = inhibition” value is on record?
Answer: inactive: 0%

Question: With Cc1ccc(C2C(=O)N(C3CCCC3)CC(=O)N2CC2COc3ccccc3O2)cc1 (stereo not drawn) as the compound, how does the Potency read?
Answer: inconclusive: 18.5 µM [inhibitor, single point]

Question: Which “activity change, negative = inhibition” value does the source give for O=c1cc(CSc2nnc(C3CC3)n2Cc2ccccc2)nc2sccn12 here?
Answer: inactive: -16.3%

Question: With Cc1cc2n(n1)C(c1cn(-c3ccccc3)nc1C)Nc1ccccc1-2 (stereo not drawn) as the compound, how does the “activity change, negative = inhibition” value read?
Answer: inactive: -20.2%

Question: Which Potency does the source give for Cc1ccccc1NC(=O)COC(=O)/C=C/c1cn(-c2ccccc2)nc1-c1cccnc1 here?
Answer: inconclusive: 18.5 µM [inhibitor, single point]

Question: For Cc1ccc(C(=O)N(CC(=O)NC2CCCCC2)c2ccccc2C)s1, which Potency is on record?
Answer: inconclusive: 10.4 µM [inhibitor, partial curve, poor fit]

Question: For Cc1csc2ncnc(N3CCN(C(=O)Nc4ccc(OC(F)(F)F)cc4)CC3)c12, which Potency is on record?
Answer: inconclusive: 10.4 µM [inhibitor, partial curve, poor fit]

Question: With CCCCN(C)C(=O)c1cc2cc3cc(OC)ccc3nc2o1 as the compound, how does the “activity change, negative = inhibition” value read?
Answer: inactive: 30.1%

Question: Which “activity change, negative = inhibition” value does the source give for CC(C(=O)NC1C(=O)N2C(C(=O)O)=C(CSc3nnnn3C)CSC12)n1cc(Br)cn1 (stereo not drawn) here?
Answer: inactive: 45.8%
